Source: PubChem BioAssay AID652243 (Drosophila RNAi Screening Center, 2013)

Assay: 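Fly regulators of androgen-dependent reporter output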 (primary screen)
System: Drosophila S2R+ cells
Knock-down reagent: long dsRNA against Drosophila genes
Timing: 72 h (48 h, then 24 h hormone)
Treatment: synthetic androgen R1881 at 10 nM for 24 h
Detection: 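Per-well raw luminescence of the androgen-driven firefly reporter and of the Renilla control, two replicates each, without normalisation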
Reading the numbers: firefly reporter light: higher = more light from androgen-responsive reporter; Renilla control light: higher = more constitutive control signal (cell number, transfection)
Active means: 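Hit when the log firefly-to-Renilla ratio dropped or increased by a fixed fold versus the mean of GFP or LacZ controls across duplicate plates; lowering cut given as 1.5 and as 3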
Meaning of the calls: active = hit: reporter lowered or raised; inactive = no hit
The deposit covers about 24,000 reagents; below is a random part of those with a known target gene and a result. Of all reagents, 246 (1%) were called active. 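Plates not normalised; calls are printed but the firefly/Renilla ratio behind them is not deposited; fold cut for lowering reported inconsistently.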 Raw values are not corrected between plates. The numbers tell different reagents against one gene apart. Names joined by + are all predicted targets of the reagent. Not given: the amount of reagent.

Gene	dsRNA no.	firefly reporter light, replicate 1	firefly reporter light, replicate 2	Renilla control light, replicate 1	Renilla control light, replicate 2	Call
CG9445	1	2.92e5	2.53e5	2.30e6	1.79e6	inactive
CG7168	1	1.41e5	82228	5.93e5	5.42e5	inactive
Faa (Fumarylacetoacetase)	1	1.26e6	9.78e5	1.99e6	1.09e6	inactive
mRpL37 (mitochondrial ribosomal protein L37)	1	2.23e5	1.65e5	3.16e6	3.27e6	inactive
fred (friend of echinoid)	1	3.05e5	2.20e5	1.12e6	9.33e5	inactive
fred (friend of echinoid)	2	5.53e5	5.84e5	3.21e6	3.14e6	inactive
fred (friend of echinoid)	3	1.15e5	83956	6.47e5	6.55e5	inactive
fred (friend of echinoid)	4	1.53e5	76237	1.32e6	6.00e5	inactive
fred (friend of echinoid)	5	6.12e5	7.15e5	1.41e6	1.51e6	inactive
CG18599	1	7.08e5	7.62e5	1.03e6	1.09e6	inactive
CG18599	2	6.01e5	7.04e5	9.58e5	8.26e5	inactive
CG18599	3	2.33e5	1.87e5	8.05e5	7.52e5	inactive
CG18428	1	1.34e5	1.37e5	2.57e6	2.54e6	inactive
CG18428	2	4.59e5	5.03e5	1.19e6	1.16e6	inactive
CG32986	1	3.20e5	2.47e5	1.70e6	1.57e6	inactive
CG15891 + CG15892	1	53312	78814	7.47e5	6.61e5	inactive
CG15891 + CG15892	2	1.51e5	2.09e5	1.48e6	2.81e6	inactive
CG12782	1	1.99e5	2.95e5	1.51e6	9.47e5	inactive
TBC1D16 (TBC1 domain family member 16)	1	1.63e5	1.65e5	1.25e6	1.13e6	inactive
CG15638	1	2.14e5	2.62e5	1.56e6	1.83e6	inactive
Cyp12a5 (Cytochrome P450 12a5)	1	2.13e5	2.90e5	3.62e6	3.31e6	inactive
Cyp12a5 (Cytochrome P450 12a5)	2	6.00e5	3.78e5	5.35e5	5.11e5	inactive
CG32095	1	5.02e5	5.87e5	1.85e6	1.48e6	inactive
Uhg2 + snoRNA:Me18S-G1620 + snoRNA:U14:30Ea	1	1.58e5	1.64e5	5.74e5	4.43e5	inactive
RpL22-like (Ribosomal protein L22-like)	1	3.03e5	2.88e5	2.40e6	1.81e6	inactive
CG34293	1	9.66e5	7.74e5	1.50e6	1.60e6	inactive
CG31121	1	1.38e5	1.61e5	2.31e6	2.07e6	inactive
CG31121	2	2.41e5	2.11e5	1.89e6	2.13e6	inactive
CG4998	1	1.54e5	1.42e5	6.98e5	1.00e6	inactive
CG4998	2	6.27e5	1.50e6	1.23e6	2.32e6	inactive
Cks85A (Cyclin-dependent kinase subunit 85A)	1	84373	70327	2.27e6	2.02e6	inactive
PDCD-5 (Programmed Cell Death 5)	1	3.58e5	2.58e5	3.54e6	2.00e6	inactive
ppk18 (pickpocket 18)	1	2.98e5	2.02e5	1.92e6	1.47e6	inactive
ppk18 (pickpocket 18)	2	2.47e5	3.15e5	1.20e6	1.51e6	inactive
wake (wide awake)	1	1.70e5	2.79e5	2.43e6	2.31e6	inactive
wake (wide awake)	2	1.47e5	2.26e5	2.41e6	2.33e6	inactive
LanB1	1	6.04e5	7.43e5	1.34e6	1.67e6	inactive
LanB1	2	5.22e5	3.21e5	5.65e5	4.48e5	inactive
gol (goliath)	1	9.93e5	8.97e5	2.15e6	2.37e6	inactive
CCHa2 (CCHamide-2)	1	8.35e5	9.73e5	2.70e6	2.32e6	inactive
gnu (giant nuclei)	1	1.34e6	9.73e5	1.44e6	1.62e6	inactive
CG5708	1	2.60e5	2.08e5	1.59e6	1.56e6	inactive
CG12991	1	5.13e5	4.57e5	2.96e6	2.95e6	inactive
CG12991	2	5.72e5	4.33e5	1.50e6	1.14e6	inactive
lectin-37Db	1	2.26e5	2.29e5	1.92e6	1.77e6	inactive
Npc2h (Niemann-Pick type C-2h)	1	2.43e5	2.52e5	2.32e6	3.24e6	inactive
CG13215	1	3.77e5	3.88e5	2.23e6	2.05e6	inactive
CG7227	1	5.86e5	9.15e5	1.09e6	1.18e6	inactive
CG18231	1	3.25e5	2.18e5	1.87e6	2.26e6	inactive
Galphai (G protein alpha subunit i)	1	1.44e6	9.61e5	2.29e6	1.76e6	inactive
Galphai (G protein alpha subunit i)	2	2.93e5	4.52e5	3.85e5	8.82e5	inactive
hrm (hermes)	1	3.46e5	3.99e5	2.09e6	2.26e6	inactive
lncRNA:CR33942 (long non-coding RNA:CR33942)	1	7.75e5	6.96e5	2.20e6	2.01e6	inactive
lncRNA:CR33942 (long non-coding RNA:CR33942)	2	1.02e6	7.81e5	1.98e6	1.77e6	inactive
CG2964	1					inactive
CG2964	2	2.74e5	1.87e5	6.15e5	7.16e5	inactive
CG15117	1	1.70e6	1.56e6	7.49e5	6.75e5	inactive
CG15117	2	5.86e5	5.34e5	6.28e5	6.29e5	inactive

Reformatted: 6 of the entries above
lectin-37Db — firefly reporter light, replicate 1 = 2.26e5; firefly reporter light, replicate 2 = 2.29e5; Renilla control light, replicate 1 = 1.92e6; Renilla control light, replicate 2 = 1.77e6; Call = inactive
Npc2h (Niemann-Pick type C-2h) — firefly reporter light, replicate 1 = 2.43e5; firefly reporter light, replicate 2 = 2.52e5; Renilla control light, replicate 1 = 2.32e6; Renilla control light, replicate 2 = 3.24e6; Call = inactive
CG13215 — firefly reporter light, replicate 1 = 3.77e5; firefly reporter light, replicate 2 = 3.88e5; Renilla control light, replicate 1 = 2.23e6; Renilla control light, replicate 2 = 2.05e6; Call = inactive
CG7227 — firefly reporter light, replicate 1 = 5.86e5; firefly reporter light, replicate 2 = 9.15e5; Renilla control light, replicate 1 = 1.09e6; Renilla control light, replicate 2 = 1.18e6; Call = inactive
CG18231 — firefly reporter light, replicate 1 = 3.25e5; firefly reporter light, replicate 2 = 2.18e5; Renilla control light, replicate 1 = 1.87e6; Renilla control light, replicate 2 = 2.26e6; Call = inactive
Galphai (G protein alpha subunit i) #1 — firefly reporter light, replicate 1 = 1.44e6; firefly reporter light, replicate 2 = 9.61e5; Renilla control light, replicate 1 = 2.29e6; Renilla control light, replicate 2 = 1.76e6; Call = inactive
